# Patent US8748451B2, “HDAC inhibitors and therapeutic methods of using same” (The Board of Trustees of the University of Illinois, priority 2009, dated 2014)
# For at least one compound, name, drawing or mass did not settle the structure.
# Experiments:
# [1] = system: Aβ-infused mice; test: Contextual fear conditioning after Aβ42 infusion; format: in vivo; settings: 25 mg/kg ip 2 hours before training, assessed 24 hours later
# Protocol: In this test, mice were infused with Aβ42 via cannulas implanted into dorsal hippocampus 15 minutes prior to training. […] Fear learning was assessed 24 hours later.
# [2] = system: collagen-induced arthritis model in DBA1/J mice; test: Collagen-induced arthritis model; format: in vivo
# From the text: In this test, DBA1/J mice (male, 7-8 weeks) were used, with 8 animals per group. Systemic arthritis was induced with bovine collagen type II and CFA, plus an IFA booster injection on day 21.
# The results are summarized in FIG. 3, containing graphs of Average Arthritic Score vs. Days of Treatment.
# [3] = system: primary cortical neurons; test: HCA oxidative stress neuroprotection assay (MTT viability); settings: 10 μM, with HCA 5 mM, 24 h
# [4] = system: cardiac allograft; test: Cardiac allograft survival; format: in vivo; settings: mice
smiles,measurement,setting,value
"CN1CCc2c(c3ccccc3n2Cc2ccc(C(=O)NO)cc2)C1 [Compound 6, N-Hydroxy-4-(2-methyl-1,2,3,4-tetrahydro-pyrido[4,3-b]indol-5-ylmethyl)benzamide]",freezing response (contextual fear conditioning),[1],ameliorates deficit in freezing responses
same,Average Arthritic Score vs. ENBREL,[2]; 50 mg/kg IP from day 28 for 2 weeks,performed as well as ENBREL
same,Average Arthritic Score vs. ENBREL,[2]; 100 mg/kg IP from day 28 for 2 weeks,outperformed ENBREL®
same,protection against HCA-induced neuronal cell death,[3],near complete protection
same,cardiac allograft survival,[4],prolong cardiac allograft survival
